Assay results: PubChem BioAssay AID493014 (National Center for Advancing Translational Sciences (NCATS), 2011)
The list shows a part of the results. The main result of the screen is listed elsewhere. These columns were measured beside it and carry no call. Compounds called inactive in the main read-out are mostly missing here. Potencies come from curve fits of mixed quality, noted in brackets.

Assay: qHTS Assay to Find Inhibitors of Chronic Active B-Cell Receptor Signaling
Details: ABC-DLBCL IkBa-CBG/CBR reporter, luminescence ratio (green luciferase fused to IkBa over red control in TMD8 lymphoma cells), 4 h
Outline: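 Compounds up to 46 uM were incubated four hours with TMD8 cells whose green CBG68 luciferase is fused to IkappaBalpha; red CBR luminescence normalised the signal, and concentration-effect curves were fitted to fusion, red and ratio data.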

[1] = measured here: CBR red luminescence, cell number
[2] = measured here: IkBa-CBG green luminescence

| Compound | AC50 [1] | AC50 [2] |
| --- | --- | --- |
| COc1ccccc1NC1=C(NC(C)=O)C(=O)c2ccccc2C1=O | 4.47 µM [rising, single point] | 35.5 µM [rising, partial curve, poor fit] |
| COc1ccc(-c2csc3nc(-c4cccnc4)nc(Cl)c23)cc1OC | 29.1 µM [falling, single point] | – |
| Cc1ccc(C(=O)Nc2cc3c(cc2Cl)OCCCO3)cc1 | 3.98 µM [rising, partial curve, poor fit] | – |
| O=C(Nc1ccccn1)C1COc2ccccc2O1 (stereo not drawn) | 18.4 µM [falling, partial curve] | – |
| O=C(NNC(=O)c1ccc2ccccc2c1O)c1ccccc1Cl | 23.1 µM [falling, partial curve] | – |
| O=C(O)c1ccc(Cn2nnc3sc4c(c3c2=O)CCCC4)cc1 | 11.2 µM [falling, partial curve] | – |
| Cc1cc(C)n2nc(C(=O)N/N=C/c3ccco3)nc2n1 | 15.8 µM [falling, partial curve, poor fit] | – |
| CC1C/C(=N\NC(=O)c2ccc([N+](=O)[O-])cc2)CC(C)(C)C1 (stereo not drawn) | 5.62 µM [rising, single point] | – |
| O=C(Nc1ccc(Cl)cn1)c1ccc(Oc2ccccc2)cc1 | 6.31 µM [rising, single point] | – |
| CNC(=O)N(O)C1N(/N=C/c2cccnc2)C(=S)SC1(C)C (stereo not drawn) | 35.5 µM [rising, single point] | – |
| C/C(=N\Nc1ncc(Cl)cc1Cl)c1ccccn1 | – | 35.5 µM [falling, single point] |
| COc1ccc(C(=O)Nc2cc(C(=O)NCCc3ccccc3)ccc2Cl)cc1 | 0.651 µM [rising, full curve, poor fit] | – |
| O=C(CSc1ncc(C(F)(F)F)cc1Cl)NCC1CCCO1 (stereo not drawn) | 6.31 µM [rising, single point] | – |
| Cc1nc(NC(=O)c2ccc(Cl)cc2)sc1-c1csc(Nc2cccc(F)c2)n1 | 3.98 µM [falling, full curve, poor fit] | – |
| C/C(CCC12CC3CC(CC(C3)C1)C2)=N\NC(N)=S | – | 18.4 µM [falling, partial curve, poor fit] |
| COC(=O)c1cc(-c2cccc([N+](=O)[O-])c2)c2c(=O)[nH]c(=O)n(C)c2n1 | 5.62 µM [rising, single point] | – |
| CN(C)CCCn1cnc2c(c1=N)C(c1ccccc1)c1ccc3ccccc3c1O2 (stereo not drawn) | 7.94 µM [falling, partial curve] | – |
| Cc1cccc(CSCCNC(=O)CN2C(=O)c3ccccc3S2(=O)=O)c1 | 2.82 µM [rising, full curve, poor fit] | – |
| CCn1c(CNc2ccc(F)cc2)nnc1SCC(=O)Nc1ccccc1OC | 23.1 µM [falling, single point] | – |
| Cc1cc(C(=O)CSc2nc3ccccc3c(=O)n2C)c(C)n1CC1CCCO1 (stereo not drawn) | 6.31 µM [falling, partial curve, poor fit] | – |
| Cc1cc(NC(=O)COC(=O)c2oc3c(ccc4ccccc43)c2C)no1 | 1.46 µM [rising, full curve] | – |
| CN(C)S(=O)(=O)c1ccc(C(=O)NCc2ccco2)cc1 | 1.12 µM [rising, single point] | – |

Looked up above:
C/C(=N\Nc1ncc(Cl)cc1Cl)c1ccccn1 – AC50 [2]: 35.5 µM [falling, single point]
CN(C)S(=O)(=O)c1ccc(C(=O)NCc2ccco2)cc1 – AC50 [1]: 1.12 µM [rising, single point]

(listing goes on)

| Compound | AC50 [1] | AC50 [2] |
| --- | --- | --- |
| CC1=CN2C(=N)/C(=C/c3ccco3)C(=O)N=C2S1 | 14.6 µM [falling, single point] | – |
| CCOC(=O)C1=C(c2ccc(OC)cc2)C(=O)c2ccccc2C1=O | 5.8 µM [falling, full curve] | – |
| CSc1ccccc1NC(=O)Nc1cccc2ccccc12 | 0.1 µM [falling, full curve, poor fit] | – |
| COc1ccccc1CNc1ncnc2nc[nH]c12 | 10.3 µM [falling, partial curve, poor fit] | – |
| C#CCOc1ccc(Cl)cc1/C=N/O | 35.5 µM [rising, single point] | – |
| CCCCN(C)c1ncnc2c1cnn2-c1cccc(Cl)c1 | 25.1 µM [rising, single point] | – |
| CCS(=O)(=O)c1ccc(O)c(NC(=O)Nc2cccc3ccccc23)c1 | 14.1 µM [falling, partial curve] | – |
| O=C(Nc1cccc(F)c1)N1C2CCC1CC(O)(c1cccnc1)C2 (stereo not drawn) | 0.891 µM [rising, full curve, poor fit] | – |
| O=C(NC1(C(F)(F)F)Oc2ccccc2O1)N1CCCC1 | 10 µM [falling, partial curve] | – |
| Clc1cccc(Cl)c1CSc1nnc([C@@H]2CCCN2)o1 | 7.08 µM [rising, partial curve, poor fit] | – |
| CCOC(=O)c1cc(-c2ccc3c(c2)OCCO3)nc2c1c(C)nn2CCC#N | 2.59 µM [rising, full curve, poor fit] | – |
| O=C1CN(C(=O)COC(=O)/C=C/c2ccco2)c2ccccc2N1 | 0.398 µM [rising, partial curve, poor fit] | – |
| COc1cccc(-c2nn(-c3ccccc3)cc2/C=C\C(=O)c2cccs2)c1 | 2.82 µM [falling, full curve, poor fit] | – |
| CCc1ccc2[nH]c3nc(SCC(=O)NNC(=O)c4ccc(C(C)(C)C)cc4)nnc3c2c1 | 29.1 µM [rising, single point] | – |
| COc1ccc(C(=O)O/N=C(\N)c2ccc(OC)c(OC)c2)c(OC)c1 | 0.251 µM [rising, full curve, poor fit] | – |
| O=C(O)COc1ccccc1-c1ccccc1 | 35.5 µM [rising, single point] | – |
| CCN1C(=NCCc2cccnc2)N[C@@H](c2ccccc2)[C@H](C(=O)OC)[C@H]1C | 0.794 µM [rising, full curve, poor fit] | – |
| Cc1ccc(/C=C/C(=O)c2c(C)nc3ccccn23)cc1 | 4.47 µM [rising, partial curve, poor fit] | – |
| COc1ccc2c(c1)c(=O)c(C(=O)c1ccccc1)cn2Cc1ccc(C)cc1 | 29.1 µM [falling, partial curve, poor fit] | – |
| O=C(O)c1ccc(NC2=Nc3cccc4cccc2c34)cc1 | 0.112 µM [falling, full curve, poor fit] | – |
| COc1ccc(OCC(=O)Nc2ccc3c(c2)n(C)c(=O)n3C)cc1 | 35.5 µM [rising, single point] | – |
| CCc1ccc(CNC(=O)Cc2ccc(NC(=O)C3=C(C)OCCS3)cc2)cc1 | 2.82 µM [rising, full curve] | 2.82 µM [falling, full curve] |

| Compound | AC50 [1] | AC50 [2] |
| --- | --- | --- |
| CCCC1O[C@@H]2C[C@H]3[C@@H]4CCC5=CC(=O)C=C[C@]5(C)[C@H]4[C@@H](O)C[C@]3(C)[C@]2(C(=O)CO)O1 (stereo partly drawn) | 14.6 µM [rising, partial curve, poor fit] | – |
| C[C@@H](OC(=O)c1[nH]cnc1C(=O)N1CCc2ccccc2C1)c1ccccc1 | 0.058 µM [rising, full curve, poor fit] | – |
| COc1cccc(OCC(=O)NNC(=O)c2ccc3ccccc3c2O)c1 | 35.5 µM [falling, single point] | – |
| O=C(NCC1COc2ccccc2O1)c1ccc(Cl)cc1 (stereo not drawn) | 7.08 µM [rising, partial curve] | – |
| NC(=O)c1c(NC(=S)Nc2ccc(F)cc2)sc2c1CCCC2 | 5.62 µM [rising, single point] | – |
| CC(=O)Nc1ccc(OCC(O)Cn2ccnc2)cc1 (stereo not drawn) | 5.62 µM [falling, partial curve] | – |
| C/C(=N\NC(=O)c1c(Cl)cnn1C)c1cccnc1 | 10 µM [falling, partial curve, poor fit] | – |
| CC1CC(C)CN(C(=S)Nc2ccc(OC(F)F)cc2)C1 (stereo not drawn) | 2.91 µM [rising, full curve, poor fit] | – |
| Cc1nc2c3ccccc3nc(SCC(=O)N3CC(C)CC(C)C3)n2n1 (stereo not drawn) | 6.51 µM [falling, single point] | – |
| Cc1cc(C)nc(N/N=C/c2ccccc2Cl)n1 | 14.1 µM [falling, partial curve] | – |
| CC1Cc2ccccc2N1C(=O)CN(C)CC(=O)Nc1ccc(F)cc1 (stereo not drawn) | 20.6 µM [falling, single point] | – |
| COc1cc(/C=N/NC(=O)c2cccnc2)cc(Br)c1O | 12.6 µM [falling, single point] | – |
| Clc1cccc(-n2ncc3c(NCCCc4ccccc4)ncnc32)c1 | 2.51 µM [falling, partial curve, poor fit] | – |
| CC(=O)c1ccc(NC(=O)CSc2nnc(C3CC3)n2C2CC2)cc1 | 4.11 µM [rising, single point] | – |
| Cc1ccc(C(=O)Nc2nc3ccccc3c(=O)s2)cc1 | 6.31 µM [falling, full curve] | – |
| CCCn1c(NC(=O)c2ccc(F)cc2)nc2ccccc21 | 8.91 µM [rising, partial curve, poor fit] | – |
| CCOCCCNC(=O)c1ccc(N2CCOCC2)c(NS(=O)(=O)c2ccc(OC)cc2)c1 | 4.47 µM [rising, partial curve, poor fit] | – |
| CS(=O)(=O)c1sc(C#N)c2c1C(=O)CC(c1ccccc1)C2 (stereo not drawn) | 7.08 µM [falling, full curve] | 11.2 µM [rising, partial curve, poor fit] |
| Cc1nc(NC(=O)c2cc(-n3cnnc3)ccc2Cl)ccc1Br | – | 3.26 µM [rising, full curve, poor fit] |
| COc1cccc(N(C(=O)c2ccco2)C(C(=O)NC2CCCC2)c2cccnc2)c1 (stereo not drawn) | 15.8 µM [falling, single point] | – |
| CCN(CC)c1nc(C)c2c(c1C#N)CC(C)(C)OC2 | 12.6 µM [rising, partial curve, poor fit] | – |
